Experimental data reported in the supplement of paper PMC10849652.
This is one part of the list.

Protein sequences, listed by entry. Tags and fused reporters are not part of them. Lines headed by an entry give the natural chain unless they say otherwise; changes in a name come on top.
UniProt P28065: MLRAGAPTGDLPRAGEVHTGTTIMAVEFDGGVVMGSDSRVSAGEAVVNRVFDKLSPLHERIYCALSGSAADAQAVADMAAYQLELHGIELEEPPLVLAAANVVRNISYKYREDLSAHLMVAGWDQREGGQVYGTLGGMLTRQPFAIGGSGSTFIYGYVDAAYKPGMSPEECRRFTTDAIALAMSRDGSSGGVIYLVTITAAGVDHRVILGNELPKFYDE
UniProt O43242, whole entry, looked up: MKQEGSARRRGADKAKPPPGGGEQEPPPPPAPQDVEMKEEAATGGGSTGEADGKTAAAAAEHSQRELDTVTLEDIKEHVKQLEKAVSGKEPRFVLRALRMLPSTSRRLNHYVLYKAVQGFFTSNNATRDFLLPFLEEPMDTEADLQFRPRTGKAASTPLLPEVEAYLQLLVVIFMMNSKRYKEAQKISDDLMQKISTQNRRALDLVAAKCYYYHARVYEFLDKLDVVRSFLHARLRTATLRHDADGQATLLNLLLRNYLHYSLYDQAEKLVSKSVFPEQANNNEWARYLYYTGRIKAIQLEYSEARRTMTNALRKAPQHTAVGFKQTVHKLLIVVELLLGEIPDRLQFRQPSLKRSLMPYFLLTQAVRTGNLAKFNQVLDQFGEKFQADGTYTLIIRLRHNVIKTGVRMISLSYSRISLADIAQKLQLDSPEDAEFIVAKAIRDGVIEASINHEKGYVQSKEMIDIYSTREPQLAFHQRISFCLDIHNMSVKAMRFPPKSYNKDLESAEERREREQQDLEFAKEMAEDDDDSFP
UniProt Q9H7Z7: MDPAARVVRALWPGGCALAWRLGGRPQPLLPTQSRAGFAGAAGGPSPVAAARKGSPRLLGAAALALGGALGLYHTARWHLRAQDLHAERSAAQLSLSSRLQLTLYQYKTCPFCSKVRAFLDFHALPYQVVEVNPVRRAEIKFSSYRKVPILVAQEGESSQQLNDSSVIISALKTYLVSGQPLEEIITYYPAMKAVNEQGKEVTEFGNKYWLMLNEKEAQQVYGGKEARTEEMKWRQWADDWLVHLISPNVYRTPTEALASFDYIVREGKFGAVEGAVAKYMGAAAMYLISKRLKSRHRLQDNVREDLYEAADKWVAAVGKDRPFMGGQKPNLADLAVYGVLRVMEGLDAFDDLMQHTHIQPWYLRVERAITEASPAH
UniProt P08575: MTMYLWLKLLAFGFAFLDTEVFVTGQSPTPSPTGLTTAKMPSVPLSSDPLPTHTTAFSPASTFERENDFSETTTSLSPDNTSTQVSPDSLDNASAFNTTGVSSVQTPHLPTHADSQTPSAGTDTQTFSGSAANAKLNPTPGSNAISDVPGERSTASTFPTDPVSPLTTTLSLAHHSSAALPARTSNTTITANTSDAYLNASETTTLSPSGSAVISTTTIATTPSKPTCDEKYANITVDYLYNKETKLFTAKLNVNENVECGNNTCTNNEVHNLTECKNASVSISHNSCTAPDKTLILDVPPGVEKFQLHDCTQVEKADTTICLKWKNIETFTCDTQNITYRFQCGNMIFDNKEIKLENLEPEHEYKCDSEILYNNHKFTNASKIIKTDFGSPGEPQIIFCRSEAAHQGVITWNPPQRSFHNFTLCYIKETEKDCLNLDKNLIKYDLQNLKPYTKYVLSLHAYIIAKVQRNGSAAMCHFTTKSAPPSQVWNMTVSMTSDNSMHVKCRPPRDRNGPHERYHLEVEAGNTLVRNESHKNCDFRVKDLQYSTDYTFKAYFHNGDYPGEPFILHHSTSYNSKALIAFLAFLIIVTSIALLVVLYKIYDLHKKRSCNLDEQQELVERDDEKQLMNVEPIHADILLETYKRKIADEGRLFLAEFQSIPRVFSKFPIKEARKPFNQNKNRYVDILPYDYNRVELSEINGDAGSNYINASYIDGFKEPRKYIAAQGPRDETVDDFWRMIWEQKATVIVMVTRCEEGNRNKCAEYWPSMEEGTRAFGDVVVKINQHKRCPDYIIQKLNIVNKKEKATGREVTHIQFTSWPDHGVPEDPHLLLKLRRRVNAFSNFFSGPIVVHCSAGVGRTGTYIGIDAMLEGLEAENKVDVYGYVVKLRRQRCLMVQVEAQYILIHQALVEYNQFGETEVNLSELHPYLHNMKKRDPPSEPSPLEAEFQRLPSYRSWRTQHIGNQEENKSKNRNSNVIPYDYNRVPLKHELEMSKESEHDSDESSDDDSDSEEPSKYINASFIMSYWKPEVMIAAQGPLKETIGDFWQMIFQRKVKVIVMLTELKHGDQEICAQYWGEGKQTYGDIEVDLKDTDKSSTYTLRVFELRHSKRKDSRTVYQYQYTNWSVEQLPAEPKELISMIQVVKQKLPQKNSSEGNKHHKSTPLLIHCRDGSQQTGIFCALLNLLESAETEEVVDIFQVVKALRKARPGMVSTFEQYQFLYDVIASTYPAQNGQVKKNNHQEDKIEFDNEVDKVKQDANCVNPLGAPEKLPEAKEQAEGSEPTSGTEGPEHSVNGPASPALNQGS
UniProt Q9Y617: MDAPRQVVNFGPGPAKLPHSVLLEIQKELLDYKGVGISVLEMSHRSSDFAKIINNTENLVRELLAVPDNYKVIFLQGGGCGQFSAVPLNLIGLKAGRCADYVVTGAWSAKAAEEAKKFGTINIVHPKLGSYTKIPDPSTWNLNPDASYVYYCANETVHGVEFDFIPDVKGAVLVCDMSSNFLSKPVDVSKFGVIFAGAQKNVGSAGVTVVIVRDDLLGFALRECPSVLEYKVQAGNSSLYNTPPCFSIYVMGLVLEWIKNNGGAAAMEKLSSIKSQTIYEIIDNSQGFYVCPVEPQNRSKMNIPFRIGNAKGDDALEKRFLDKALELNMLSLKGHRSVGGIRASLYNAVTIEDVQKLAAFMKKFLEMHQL
UniProt P28070, whole entry, looked up: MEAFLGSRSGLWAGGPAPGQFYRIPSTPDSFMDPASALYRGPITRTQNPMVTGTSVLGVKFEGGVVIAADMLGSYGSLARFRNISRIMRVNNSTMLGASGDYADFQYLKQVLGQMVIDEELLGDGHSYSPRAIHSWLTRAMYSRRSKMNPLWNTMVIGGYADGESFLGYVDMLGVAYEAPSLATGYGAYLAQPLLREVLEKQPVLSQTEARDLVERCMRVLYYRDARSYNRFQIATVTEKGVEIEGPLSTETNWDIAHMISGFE
UniProt Q6PGN9: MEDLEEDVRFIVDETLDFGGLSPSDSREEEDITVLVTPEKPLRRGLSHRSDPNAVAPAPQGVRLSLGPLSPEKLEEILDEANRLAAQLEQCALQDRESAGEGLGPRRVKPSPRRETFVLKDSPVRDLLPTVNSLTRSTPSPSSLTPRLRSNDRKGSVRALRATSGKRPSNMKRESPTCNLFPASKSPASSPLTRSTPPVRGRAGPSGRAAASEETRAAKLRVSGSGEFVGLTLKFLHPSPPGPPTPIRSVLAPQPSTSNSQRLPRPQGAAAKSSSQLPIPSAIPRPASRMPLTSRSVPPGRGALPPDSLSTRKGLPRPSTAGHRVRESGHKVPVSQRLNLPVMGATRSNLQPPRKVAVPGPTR
UniProt P26599: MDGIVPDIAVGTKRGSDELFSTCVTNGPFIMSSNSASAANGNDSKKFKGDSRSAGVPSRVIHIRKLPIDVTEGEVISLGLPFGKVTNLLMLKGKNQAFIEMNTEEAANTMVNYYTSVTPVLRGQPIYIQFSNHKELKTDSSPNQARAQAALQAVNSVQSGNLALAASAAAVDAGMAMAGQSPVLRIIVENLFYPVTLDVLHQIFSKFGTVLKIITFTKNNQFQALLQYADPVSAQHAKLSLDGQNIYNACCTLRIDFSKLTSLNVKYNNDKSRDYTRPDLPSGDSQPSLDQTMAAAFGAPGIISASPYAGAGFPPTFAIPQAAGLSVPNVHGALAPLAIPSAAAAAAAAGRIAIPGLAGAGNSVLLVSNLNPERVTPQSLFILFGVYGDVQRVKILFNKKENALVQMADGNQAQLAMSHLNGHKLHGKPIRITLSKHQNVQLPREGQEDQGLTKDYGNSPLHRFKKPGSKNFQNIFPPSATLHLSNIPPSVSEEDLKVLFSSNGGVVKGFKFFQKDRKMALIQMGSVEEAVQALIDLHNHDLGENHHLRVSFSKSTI

How the values were obtained:
Experiment in all cases: log2 fold change, soluble protein after heating vs DMSO (PISA); higher = thermal stabilisation; K562 lysate, 10 uM; active = over 0.2 and 3.5 SD of the protein, either way, in both replicates (recomputed)
vemurafenib = compound: CCCS(=O)(=O)Nc1ccc(F)c(C(=O)c2c[nH]c3ncc(-c4ccc(Cl)cc4)cc23)c1F [vemurafenib]
Summary of the method: (§1)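 K562 pellets were dounce-homogenised in PBS pH 7.4 with 1 mM MgCl2, and the crude extract at 1 mg/mL protein was treated with 10 μM compound for 30 min. Aliquots were heated for 3 min across 48°C-58°C, pooled, and brought to 0.5% NP-40 at 4°C; soluble protein was the supernatant after 21,000xg for 90 min. Soluble protein was quantified by TMTpro 16plex LC-MS/MS with channel sums equalised, and reported as log2 fold change in thermal stability against DMSO controls, with values from duplicates.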

[1] = compound: CCCS(=O)(=O)Nc1ccc(F)c(C(=O)c2c[nH]c3ncc(Cl)cc23)c1F
Summary of the method: as §1

barasertib = compound: CCN(CCCOc1ccc2c(Nc3cc(CC(=O)Nc4cccc(F)c4)[nH]n3)ncnc2c1)CCOP(=O)(O)O [barasertib]
Summary of the method: as §1

[2] = compound: CC[C@@H]1C(=O)N(C)c2cnc(Nc3ccc(C(=O)NC4CCN(C)CC4)cc3OC)nc2N1C1CCCC1
Summary of the method: as §1

volasertib = compound: CC[C@@H]1C(=O)N(C)c2cnc(Nc3ccc(C(=O)N[C@H]4CC[C@H](N5CCN(CC6CC6)CC5)CC4)cc3OC)nc2N1C(C)C [volasertib]
Summary of the method: as §1

[3] = compound: CCn1c(C(=O)N(C2CC2)C2CC2)cc2c3c(ncn3C)c(Nc3cc(C)n(C)n3)nc21
Summary of the method: as §1

[4] = compound: CCn1cc(-c2ccnc3[nH]c(-c4cccc(CN(C)C)c4)cc23)c(-c2ccc(NC(=O)N(C)C)cc2)n1
Summary of the method: as §1

[5] = compound: CN1CCC(CNc2ccc3ncc(-c4cccc(OC(F)(F)F)c4)n3n2)CC1
Summary of the method: as §1

saracatinib = compound: CN1CCN(CCOc2cc(OC3CCOCC3)c3c(Nc4c(Cl)ccc5c4OCO5)ncnc3c2)CC1 [saracatinib]
Summary of the method: as §1

sotrastaurin = compound: CN1CCN(c2nc(C3=C(c4c[nH]c5ccccc45)C(=O)NC3=O)c3ccccc3n2)CC1 [sotrastaurin]
Summary of the method: as §1

alvocidib = compound: CN1CC[C@H](c2c(O)cc(O)c3c(=O)cc(-c4ccccc4Cl)oc23)[C@H](O)C1 [alvocidib]
Summary of the method: as §1

Tubastatin A = compound: CN1CCc2c(c3ccccc3n2Cc2ccc(C(=O)NO)cc2)C1 [Tubastatin A]
Summary of the method: as §1

[6] = compound: CNC(=O)C1=CC=CC=C1NC2=NC(=NC=C2Cl)NC3=C(C=C(C=C3)N4CCOCC4)OC
Summary of the method: as §1

defactinib = compound: CNC(=O)c1ccc(Nc2ncc(C(F)(F)F)c(NCc3nccnc3N(C)S(C)(=O)=O)n2)cc1 [defactinib]
Summary of the method: as §1

[7] = compound: CNc1nc(-c2ccc3c(N)n[nH]c3c2)cc(N2C[C@@H](C(=O)NC3CCCCC3)CC[C@H]2C)n1
Summary of the method: as §1

encorafenib = compound: COC(=O)N[C@@H](C)CNc1nccc(-c2cn(C(C)C)nc2-c2cc(Cl)cc(NS(C)(=O)=O)c2F)n1 [encorafenib]
Summary of the method: as §1

[8] = compound: COC(=O)[C@H](CCSC)NC(=O)C1=C(C=C(C=C1)NC[C@H](CS)N)C2=CC=CC=C2
Summary of the method: as §1

alisertib = compound: COc1cc(Nc2ncc3c(n2)-c2ccc(Cl)cc2C(c2c(F)cccc2OC)=NC3)ccc1C(=O)O [alisertib]
Summary of the method: as §1

[9] = compound: COc1cc2nc(-c3cc(F)ccc3O)nc(N[C@@H]3CNC[C@H]3C(C)(C)O)c2cc1OC
Summary of the method: as §1

gefitinib = compound: COc1cc2ncnc(Nc3ccc(F)c(Cl)c3)c2cc1OCCCN1CCOCC1 [gefitinib]
Summary of the method: as §1

Measured: log2 fold change

PSMB9 (UniProt P28065)
inactive: vemurafenib -0.105 | [1] 0.037 | barasertib 0.158 | volasertib 0.028 | [3] -0.06 | [4] -0.165 | [5] 0.027 | saracatinib 0.037 | sotrastaurin 0.018 | alvocidib -0.052 | Tubastatin A 0.076 | [6] 0.006 | defactinib 0.034 | [7] 0.31 | encorafenib -0.076 | [8] 0.027 | alisertib -0.04 | [9] 0.139 | gefitinib -0.016
active: [2] 0.335

PSMD3 (UniProt O43242)
inactive: vemurafenib -0.02 | [1] -0.003 | barasertib -0.003 | [2] -0.031 | volasertib -0.015 | [3] 0.001 | [4] -0.018 | [5] 0.009 | saracatinib -0.008 | sotrastaurin 0 | alvocidib 0.017 | Tubastatin A 0.008 | [6] -0.017 | defactinib -0.001 | [7] 0.011 | encorafenib 0.022 | [8] 0.028 | alisertib 0.014 | [9] 0 | gefitinib 0.006

PTGES2 (UniProt Q9H7Z7)
active: vemurafenib 0.547
inactive: [1] 0.06 | barasertib -0.107 | [2] -0.108 | volasertib 0.159 | [3] -0.053 | [4] -0.003 | [5] -0.18 | saracatinib -0.029 | sotrastaurin 0.058 | alvocidib 0.015 | Tubastatin A -0.169 | [6] 0.122 | defactinib -0.075 | [7] 0.322 | encorafenib -0.127 | [8] 0.098 | alisertib -0.026 | [9] -0.248 | gefitinib 0.245

PTPRC (UniProt P08575)
inactive: vemurafenib 0.012 | [1] -0.021 | barasertib -0.013 | [2] 0.025 | volasertib 0.019 | [3] 0.011 | [4] -0.084 | [5] 0.053 | saracatinib 0.001 | sotrastaurin 0.028 | alvocidib -0.027 | Tubastatin A 0.023 | [6] -0.018 | defactinib -0.025 | [7] -0.007 | encorafenib -0.021 | [8] -0.029 | alisertib -0.004 | [9] 0.004 | gefitinib 0.045

PSAT1 (UniProt Q9Y617)
inactive: vemurafenib -0.006 | [1] 0.002 | barasertib -0.054 | [2] 0.062 | volasertib 0.027 | [3] 0.018 | [4] 0.016 | [5] 0.014 | saracatinib -0.019 | sotrastaurin 0 | alvocidib -0.007 | Tubastatin A 0.015 | [6] -0.01 | defactinib 0.008 | [7] -0.011 | encorafenib -0.019 | [8] -0.03 | alisertib -0.028 | [9] -0.011 | gefitinib -0.041

PSMB4 (UniProt P28070)
inactive: vemurafenib 0.008 | [1] -0.019 | barasertib -0.006 | [2] 0.011 | volasertib 0.027 | [3] -0.001 | [4] -0.02 | [5] 0.053 | saracatinib -0.023 | sotrastaurin -0.016 | alvocidib -0.02 | Tubastatin A 0.061 | [6] -0.034 | defactinib -0.014 | [7] 0.017 | encorafenib -0.007 | [8] -0.018 | alisertib 0.023 | [9] 0.017 | gefitinib -0.015

PSRC1 (UniProt Q6PGN9)
inactive: vemurafenib -0.116 | [1] 0.038 | barasertib 0.058 | [2] -0.216 | volasertib -0.017 | [3] 0.045 | [4] 0.072 | [5] -0.083 | saracatinib -0.032 | sotrastaurin 0.047 | alvocidib 0.05 | Tubastatin A -0.069 | [6] 0.13 | defactinib 0.009 | [7] -0.087 | encorafenib 0.152 | [8] -0.066 | alisertib 0.018 | [9] -0.065 | gefitinib 0.064

PTBP1 (UniProt P26599)
inactive: vemurafenib 0.031 | [1] 0.039 | barasertib -0.009 | [2] 0.018 | volasertib -0.013 | [3] -0.025 | [4] 0.036 | [5] -0.013 | saracatinib 0.008 | sotrastaurin -0.016 | alvocidib 0.011 | Tubastatin A 0.007 | [6] 0.04 | defactinib 0.015 | [7] 0.113 | encorafenib -0.034 | [8] 0.064 | alisertib 0.02 | [9] -0.007 | gefitinib -0.069
